Assay results reported in patent publication US7897401B2, “Control of apoptosis by controlling the propensity of ceramide channel formation” (University of Maryland, College Park, priority 2005, dated 2011).
The amount applied is not stated for every result.

System: erythrocytes
Assay: Permeabilization of erythrocytes (osmolytes of varying molecular weight)
Format: cell-based
Conditions: 15 min incubation, FIG. 10

Question: Which “molecular weight cut off of channels in erythrocytes” value does the source give for `CCCCCCCCCCCCC/C=C/[C@@H](O)[C@@H](N)CO` [sphingosine] here?
Answer: 1 kDa
